Inconclusive results, whose numbers are uncertain, are shown with a selection of clear calls. Potencies of inconclusive entries are doubtful fits and often do not repeat. The source made the active and inactive calls. The call rests on the fitted dose curve; in most records, active means well fitted inhibition curve with a large enough effect; inconclusive means small, poorly fitted or top-dose-only effect; inactive means no such curve, though single readings can be large or run the other way.
Assay: High Content Assay for Compounds that inhibit the Assembly of the Perinucleolar Compartment: Confirmation of PNC Inhibition
Conditions: PC3M PTB-GFP, PNC prevalence imaging, 16 h; series mostly up to 46.1 µM; activity, negative = PNC inhibition: at the top concentration
Text: High Content Assay for Compounds that inhibit the Assembly of the Perinucleolar Compartment NIH Chemical Genomics Center [NCGC] NIH Molecular Libraries Probe Centers Network [MLPCN] MLPCN Grant: MH082371-01A2 Assay Submitter (PI): Sui Huang, Northwestern University, Feinberg School of Medicine, Cell and Molecular Biology, Chicago, Illinois. The perinucleolar compartment (PNC) is a non-membrane-bound nuclear subdomain that is associated with but structurally distinct from the nucleolus. The PNC is a heritable trait, in which the number of PNCs per cell in daughter cells often mimics that of their mother cells. The PNC is heterogeneous in shape, is stable through interphase, disassembles during mitosis, and reassembles in early G1. The PNC is concentrated with newly synthesized RNA polymerase III (pol III) RNAs (MRP RNA, RNAse P H1 RNA, hY RNAs[hY1, 2, 5], Alu RNA, and SRP [7SL] RNA) and RNA binding proteins (nucleolin, PTB, CUG-BP, KSRP, Raver1, Raver2, and Rod). […] Extensive in vitro studies have shown that the PNC is unique to tumor cells and preferentially forms in tumor cells derived from solid tissues. Examination of cancer cell lines from various origins and malignant capacities has shown that PNC prevalence correlates with the malignancy of tumors and has the potential to be developed as a pan-cancer prognostic marker. […] Although the PNC is associated with a DNA locus and a handful of components have been identified, much remains to be investigated regarding the structure and function of the PNC and its mechanistic link to cancer. We have previously shown that PNC prevalence reduction is a valid strategy to identify compounds that can be used to study the structure and function of the PNC. It is necessary, however, to create a screening platform that is able to test a large number of compounds in an automated fashion. Here we report the development and robustness of an automated whole-cell phenotypic image-based screening assay that is capable of identifying such compounds. Compounds active in the primary screen were then re-screened in concentration-response to confirm activity.
PNC High Content Imaging Assay Procedure: 1. Cells at a density of 75-90% confluency in T175 flasks were harvested using 7 ml TrypLE Express cell dissociation reagent. After dissociation (5 minutes room temperature incubation) 10 ml of complete media was added to the TrypLE/cell suspension. The liquid was transferred to a 50 ml Conical tube and cells were pelleted at 1000 RPM for 5 min. Supernatant was removed and cells were resuspended to a final density of 150-200 cells/ul in complete media. 2. Cells were plated in 5 ul volume (750-1000 cells/well) into 1536 well Black uclear Aurora Low Base plates and allowed to recover and adhere at 37 C in a humidified 5% CO2 incubator for 4 hours. 3. After 4 hour incubation, compound libraries (23 nl of […] in columns 5-48) were transferred to the plates in duplicate using a 1536 well pintool. Camptothecin positive control (59 uM final) was added to column 2 and 1:3 dilutions of camptothecin was added to column 3. DMSO negative controls were present in columns 1 and 4. 4. After a 16 hour incubation in the 37 C incubator, cells were fixed by the addition of 4 ul of 6% EM grade paraformaldehyde (containing 0.1% triton X 100) directly to the cells. The plates were incubated at room temperature for 20 minutes. The liquid was removed using a 32 channel Kalypsys aspirator and the fixed cells were washed twice with 5 ul PBS followed by a final addition of 5 ul PBS containing 1 ug/ml Hoechst 33342. 5. Fixed plates were sealed and sotred at 4C until imaged. 6. Plates were imaged on an InCell 1000 automated microscope using a 20 x objective, a standard FITC filter set, no camera binning, and an exposure time of ~100-150 msec/well. 7. Data analysis. […]

Structure (SMILES) | Potency | activity, negative = PNC inhibition
O=C(N/N=C/c1c(O)ccc2ccccc12)c1cccc(C(F)(F)F)c1 | inconclusive: 8.91 µM [inhibitor, full curve, poor fit] | –
Cc1cnc(NC(=O)COc2cccc3c2OC(C)(C)C3)s1 | active: 7.94 µM | –
COc1cccc(/C=N/NC(=O)c2cc3c(OC)c(OC)ccc3[nH]2)c1OC | inconclusive: 25.1 µM [inhibitor, partial curve, poor fit] | –
COc1ccc2nc3sc(C(=O)NCCCN4CCc5ccccc5C4)cc3cc2c1 | – | inactive: 3.27%
COc1ccc(Cc2nnc(N/N=C/c3ccc(O)cc3)[nH]c2=O)cc1OC | inconclusive: 7.94 µM [inhibitor, full curve, poor fit] | –
COc1cc(C(=O)Oc2ccccc2/C=N/NC(=O)c2ccc(Cl)cc2)cc(OC)c1OC | inconclusive: 12.6 µM [inhibitor, full curve, poor fit] | –
COc1ccc(/C=C/C(=O)OCC(=O)Nc2ccc(Cl)c(S(=O)(=O)N(C)C)c2)cc1OC | – | inactive: 7.49%
Cc1cc(C(=O)N/N=C/c2cc(Br)cc(Br)c2OC(=O)c2ccccc2)n[nH]1 | inconclusive: 12.6 µM [inhibitor, full curve, poor fit] | –
COc1ccc(-c2csc(NC(=O)c3ccc(OCC(=O)N4CCOCC4)c(OC)c3)n2)cc1 | inconclusive: 22.4 µM [inhibitor, partial curve, poor fit] | –
CN1c2ccccc2C(C)(C)C12CC(c1ccc(Cl)c(S(=O)(=O)N3CCCC3)c1)=NO2 (stereo not given) | active: 3.98 µM | –
O=C(NC(CSCc1ccccc1)C(=O)N/N=C/c1ccc(O)cc1O)c1ccc([N+](=O)[O-])cc1 (stereo not given) | inconclusive: 8.91 µM [inhibitor, full curve, poor fit] | –
COc1cc(/C=N/NC(=O)c2ccc(CSc3nc4ccccc4[nH]3)cc2)cc(OC)c1OC | – | inactive: -10.8%
Cc1cc(=O)[nH]c(N=N/C(=N/Nc2ccccc2C)c2ccccc2)n1 | inconclusive: 6.31 µM [inhibitor, full curve, poor fit] | –
CN(C)c1nc(OCCNC(=O)COc2ccccc2Cl)nc(N(C)C)n1 | inconclusive: 15.8 µM [inhibitor, partial curve, poor fit] | –
CCN(CC)C(=S)SSC(=S)N(CC)CC | inconclusive: 25.1 µM [activator, partial curve, poor fit] | –
Cc1cc(C)c(S(=O)(=O)/N=C2/C=C(Sc3ncn[nH]3)C(=O)c3ccccc32)cc1C | active: 6.31 µM | –
Cc1ccc(Cl)cc1N(CC(=O)N1CCCCCC1)S(C)(=O)=O | – | inactive: 8.08%
N=c1c2c(-c3ccccc3)c(-c3ccccc3)n(Cc3ccccc3)c2ncn1CCCO | active: 4.47 µM | –
O=C(Nc1cccc(S(=O)(=O)N2CCCCCC2)c1)c1ccc2c(c1)OCO2 | – | inactive: -29.9%
O=c1[nH]cnc2c1C(c1ccccc1[N+](=O)[O-])c1c(nc[nH]c1=O)O2 | – | inactive: -21.5%

Structure (SMILES) | Potency | activity, negative = PNC inhibition
Nc1ccc2c(c1)C(=O)C(=O)c1ccccc1-2 | active: 20 µM | –
Nc1cccc2nc3ccccc3cc12 | inconclusive: 20 µM [inhibitor, partial curve, poor fit] | –
CCN(CC)S(=O)(=O)c1ccc(C2=NOC3(C2)N(C)c2ccccc2C3(C)C)cc1 (stereo not given) | active: 5.01 µM | –
O=C(N/N=C/c1cc2c3c(c1O)CCCN3CCC2)c1ccccc1O | inconclusive: 15.8 µM [inhibitor, partial curve, poor fit] | –
COc1ccc(-c2nc(NC(=O)c3n[nH]c(=O)c4ccccc34)sc2C)cc1 | active: 3.98 µM | –
O=C(NCc1ccco1)C1CCN(Cc2ccc(F)cc2)CC1 | – | inactive: -6.04%
CN(C)c1ccc(N=Nc2ccccc2C(=O)OCC(=O)NC2CCCC2)cc1 | inconclusive: 31.6 µM [inhibitor, single point] | –
O=C(COC(=O)Cc1ccsc1)NCC1CCCCC1 | – | inactive: -12.7%
CCOC(=O)NC1(Nc2ccc(C)cc2)Oc2ccccc2O1 | – | inactive: -18.4%
Cc1ccc(-n2cc(-c3ccccc3)c3c(NN4CCOCC4)ncnc32)cc1 | – | inactive: -20.5%
CCOC(=O)Cn1c(-c2nonc2NC(=O)c2ccccc2F)nc2ccccc21 | active: 4.47 µM | –
Cc1ccccc1C(=O)NNC(=S)Nc1cccc(C(F)(F)F)c1 | – | inactive: -19.7%
CC(C)c1ccc(S(=O)(=O)/N=C2/C=C(Sc3ncn[nH]3)C(=O)c3ccccc32)cc1 | inconclusive: 10 µM [inhibitor, partial curve, poor fit] | –
CCCSc1cc(N2CCN(C)CC2)nc(-c2ccc(OC)cc2)n1 | inconclusive: 12.6 µM [inhibitor, full curve, poor fit] | –
CCN(CC)c1ccc(N=Cc2ccccc2[N+](=O)[O-])cc1 | – | inactive: -8.13%
CC(=O)N(C)C1=C(N2CCOCC2)C(=O)c2ccccc2C1=O | inconclusive: 15.8 µM [inhibitor, full curve, poor fit] | –
CC(=O)c1c(C)cc(C)c(CSc2nc(C)cc(=O)[nH]2)c1C | inconclusive: 31.6 µM [inhibitor, partial curve, poor fit] | –
Cc1cc(C(=O)COc2ccccc2Cl)c(C)n1-c1ccc2c(c1)OCO2 | active: 7.94 µM | –
Cc1cc[n+](C2=C([O-])c3ccccc3C(=O)/C2=N\S(=O)(=O)c2cccs2)cc1C | inconclusive: 15.8 µM [inhibitor, partial curve, poor fit] | –
CC12CCC(C(=O)NC(c3ccccc3)c3ccccc3)(OC1=O)C2(C)C (stereo not given) | – | inactive: 15%

Compounds from the list above with a CF3 group:
Structure (SMILES) | Potency | activity, negative = PNC inhibition
O=C(N/N=C/c1c(O)ccc2ccccc12)c1cccc(C(F)(F)F)c1 | inconclusive: 8.91 µM [inhibitor, full curve, poor fit] | –
Cc1ccccc1C(=O)NNC(=S)Nc1cccc(C(F)(F)F)c1 | – | inactive: -19.7%
